PubChem BioAssay AID686943 – Drosophila RNAi Screening Center, 2013

Aim: 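Knockdowns that increase or decrease active ERK after insulin receptor stimulation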 (primary screen)
Cell system: Drosophila S2R+ haemocyte-like cells expressing YFP-tagged ERK (Rolled)
Knock-down reagent: long dsRNA against Drosophila genes
Treatment: insulin stimulation versus unstimulated cells; dose and duration not given
Measurement: 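Antibody staining for doubly phosphorylated ERK divided by ERK-YFP signal, as plate z-scores, in insulin-treated and untreated cells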
Scale: replicate 1, z-score of dpERK with insulin and replicate 2, z-score of dpERK with insulin: higher = more active ERK per ERK-YFP after insulin; replicate 1, z-score of dpERK under basal conditions: higher = more basal active ERK per ERK-YFP; replicate 1, z-score of ERK-YFP with insulin: higher = more YFP-tagged ERK signal
The screen tested about 23,000 reagents; below is a random part of those with a known target gene and a result. 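Extra replicates exist only for a retested subset of genes; insulin dose and duration not given; both raised and lowered dpERK matter.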 Reagents against one gene are numbered here. Not given: the amount of reagent, the time to read-out.

Gene | reagent | replicate 1, z-score of dpERK with insulin | replicate 2, z-score of dpERK with insulin | replicate 1, z-score of dpERK under basal conditions | replicate 1, z-score of ERK-YFP with insulin
CG2983 | 1 | -0.48 | 0.57 | 0.18 | 0.52
CG12438 | 1 | -1.19 | -1.24 | 0.68 | -0.23
tho2 | 1 | 1.37 | 0.72 | 2.8 | -1.25
CG2993 | 1 | -0.01 | 0.11 | -0.19 | 0.04
CG2993 | 2 | -0.3 | 0.44 | -0.4 | 0.22
CG13051 | 1 | 0.31 | -0.24 | -0.57 | -0.25
CG4679 | 1 | 0.27 | 0.52 | -1.26 | 0.54
Ugt305A1 (UDP-glycosyltransferase family 305 member A1) | 1 | -0.81 | -0.33 | 0.82 | 0.29
CG5382 | 1 | 0.09 | -0.9 | -0.25 | -0.12
CG14431 | 1 | 0.76 | 0 | 0.25 | 0.36
CG14431 | 2 | -2.07 | -2.85 | -3.58 | 0.32
lectin-37Da | 1 | -0.06 | -0.78 | 0.24 | 0.66
lectin-37Da | 2 | -0.24 | -0.33 | -0.52 | -0.79
nom (numerous disordered muscles) | 1 | 0.32 | -0.22 | 0.3 | -0.79
Hrb98DE (Heterogeneous nuclear ribonucleoprotein at 98DE) | 1 | -0.07 | -0.88 | 0.53 | -0.73
CG14805 | 1 | 0.29 | -0.36 | -1.12 | -0.27
CG10749 | 1 | 0.13 | -0.35 | -0.29 | 0.73
Coq5 (Coenzyme Q5) | 1 | 1.3 | 1.15 | 0.07 | 0.3
Coq5 (Coenzyme Q5) | 2 | 0.93 | 0.92 | 0.66 | -0.22
Rpn13 (Regulatory particle non-ATPase 13) | 1 | 1.76 | 0.91 | -0.58 | -1.1
RanGAP (Ran GTPase activating protein) | 1 | 0.59 | -0.34 | 0.85 | -0.84
asRNA:CR33945 (antisense RNA:CR33945) | 1 | 0.69 | 1.38 | -1.62 | -1
CG33285 | 1 | 0.79 | 0.35 | 0.49 | 0.08
Ggt-1 (gamma-glutamyl transpeptidase) | 1 | -0.12 | -0.43 | 0.48 | 0.04
CG14483 | 1 | -0.27 | 0.4 | -0.17 | 0.48
CG12780 | 1 | -0.27 | 0.94 | -0.13 | 0.34
CG6908 | 1 | 0.03 | -0.41 | 0.74 | -0.23
Or83c (Odorant receptor 83c) | 1 | -0.72 | 0.11 | -0.15 | -0.3
cag | 1 | -0.28 | 0.4 | 0.49 | 1.09
CG42588 | 1 | 1 | 0.72 | 0.95 | -0.47
CG42588 | 2 | 0.83 | 0.26 | 0.1 | -1.32
tef (teflon) | 1 | -0.1 | -0.7 | 0.78 | -0.07
tef (teflon) | 2 | -0.04 | 0.07 | 0.49 | -0.4
SLIRP2 (SRA stem-loop interacting RNA binding protein 2) | 1 | -0.03 | -0.46 | -0.07 | -0.28
YME1L (YME1 like ATPase) | 1 | -0.49 | -0.43 | -0.25 | -1.2
Wdr81 (WD repeat domain 81) | 1 | -0.97 | 0.04 | -0.19 | 1.05
CtsK2 (Cathepsin K2) | 1 | 0.16 | 0.05 | -0.5 | -0.61
trem (trade embargo) | 1 | -0.05 | 0.11 | -0.57 | 0.17
tud (tudor) | 1 | 0.66 | 0.48 | 1.41 | 0.34

An excerpt from above, reduced to “replicate 2, z-score of dpERK with insulin”:
CG14805: -0.36
CG10749: -0.35
Coq5 (Coenzyme Q5) #1: 1.15
Coq5 (Coenzyme Q5) #2: 0.92
Rpn13 (Regulatory particle non-ATPase 13): 0.91
